Test results from patent US20240350493A1 (Kadmon Corporation, LLC, priority 2022, published 2024).
At least one compound was matched to its structure with a doubt left.

System: animal models of chronic GVHD
Assay: animal models of chronic GVHD
Conditions: in vivo

Structure (SMILES): CC(C)NC(=O)COc1cccc(-c2nc(Nc3ccc4[nH]ncc4c3)c3ccccc3n2)c1 [Belumosudil, 2-{3-[4-(1H-indazol-5-ylamino)-2-quinazolinyl]phenoxy}-N-(propan-2-yl) acetamide]
- activity in animal models of chronic GVHD: demonstrated activity
